Source: the supplement of paper PMC7238544
Where a name gives a salt, the structure may show the parent alone. ± gives the standard deviation of the averaged measurements. The list shows a part of the results. The data scatter; read single values as rough.

Assays:
hAMSC donor 1 [1] = assay: Hoechst total cell count ratio vs vehicle control; higher = more cells (less toxicity)
hAMSC donor 2 [2] = assay: as above
hAMSC donor 1 [3] = assay: transgenic luciferase activity (RLU/mg protein) fold change vs vehicle control (ratio); higher = more transgene expression
hAMSC donor 2 [4] = assay: as above
hAMSC donor 1 [5] = assay: transfection efficiency (EGFP+ cells / Hoechst count) fold change vs vehicle control (ratio); hAMSC are human adipose-derived mesenchymal stem cells given an EGFP-luciferase plasmid by lipofection; higher = enhanced transfection
hAMSC donor 2 [6] = assay: as above
[7] = priming compound concentration 0.2 µM
[8] = priming compound concentration 1.7 µM
[9] = priming compound concentration 13 µM

SMILES | Hoechst total cell count ratio (hAMSC donor 1 [1]; [7]) | Hoechst total cell count ratio (hAMSC donor 1 [1]; [8]) | Hoechst total cell count ratio (hAMSC donor 1 [1]; [9]) | Hoechst total cell count ratio (hAMSC donor 2 [2]; [7]) | Hoechst total cell count ratio (hAMSC donor 2 [2]; [8]) | Hoechst total cell count ratio (hAMSC donor 2 [2]; [9]) | transgenic luciferase activity (hAMSC donor 1 [3]; [8]) | transgenic luciferase activity (hAMSC donor 1 [3]; [9]) | transgenic luciferase activity (hAMSC donor 2 [4]; [7]) | transgenic luciferase activity (hAMSC donor 2 [4]; [8]) | transgenic luciferase activity (hAMSC donor 2 [4]; [9]) | transfection efficiency (hAMSC donor 1 [5]; [7]) | transfection efficiency (hAMSC donor 1 [5]; [8]) | transfection efficiency (hAMSC donor 1 [5]; [9]) | transfection efficiency (hAMSC donor 2 [6]; [7]) | transfection efficiency (hAMSC donor 2 [6]; [8]) | transfection efficiency (hAMSC donor 2 [6]; [9]) | transgenic luciferase activity (hAMSC donor 1 [3]; [7])
NS(=O)(=O)c1cc(C(=O)O)c(NCc2ccco2)cc1Cl [Furosemide] | 1.35 ± 0.19 | 1.11 ± 0.12 | 1.35 ± 0.16 | 1.07 ± 0.013 | 1.11 ± 0.051 | 1.18 ± 0.26 | 1.58 ± 1.3 | 0.361 ± 0.072 | 0.895 ± 0.12 | 0.528 ± 0.069 | 0.531 ± 0.023 | 0.74 ± 0.17 | 1.11 ± 0.041 | 1.18 ± 0.3 | 0.849 ± 0.048 | 1.3 ± 0.17 | 0.943 ± 0.087 | –
Nc1ccn([C@@H]2O[C@H](CO)[C@@H](O)C2(F)F)c(=O)n1 [Gemcitabine hydrochloride] | 1.17 ± 0.092 | 1.23 ± 0.09 | 0.955 ± 0.11 | 1.36 ± 0.3 | 1.08 ± 0.035 | 0.756 ± 0.11 | 0.158 ± 0.038 | 0.794 ± 0.11 | 0.893 ± 0.047 | 0.888 ± 0.097 | 0.405 ± 0.17 | 0.942 ± 0.15 | 0.87 ± 0.043 | 1.27 ± 0.18 | 0.912 ± 0.081 | 1 ± 0.05 | 1.01 ± 0.14 | –
CCC(=O)O[C@]1(C(=O)CCl)[C@@H](C)C[C@H]2[C@@H]3CCC4=CC(=O)C=C[C@]4(C)[C@@]3(F)[C@@H](O)C[C@@]21C [Clobetasol propionate] | 1.22 ± 0.23 | 1.09 ± 0.032 | 1.09 ± 0.14 | 0.861 ± 0.045 | 0.909 ± 0.07 | 1.19 ± 0.19 | 30.9 ± 3.9 | – | 4 ± 0.91 | 4.66 ± 0.42 | 2.9 ± 0.96 | 2.36 ± 0.61 | 2.14 ± 0.31 | 1.34 ± 0.28 | 2.92 ± 0.73 | 3.02 ± 0.05 | 1.77 ± 0.086 | 12.7 ± 0.47
Oc1c(Cl)cc(Cl)c2cccnc12 [Chloroxine] | 1.08 ± 0.18 | 1.11 ± 0.049 | 0.664 ± 0.053 | 0.996 ± 0.029 | 1.146 ± 0.0089 | 1.08 ± 0.16 | 0.988 ± 0.071 | – | 0.849 ± 0.2 | 1.02 ± 0.12 | 0.519 ± 0.2 | 1.18 ± 0.69 | 1.06 ± 0.22 | 1.06 ± 1.1 | 1.11 ± 0.12 | 1 ± 0.18 | 1.1 ± 0.091 | 0.876 ± 0.38
CC(=O)OCC(=O)[C@@]1(O)CC[C@H]2[C@@H]3CCC4=CC(=O)C=C[C@]4(C)[C@H]3[C@@H](O)C[C@@]21C [Prednisolone acetate] | 1.43 ± 0.29 | 1.4 ± 0.047 | 1.33 ± 0.12 | 1.19 ± 0.017 | 1.17 ± 0.035 | 1.3 ± 0.14 | 8.41 ± 4.2 | – | 1.1 ± 0.21 | 1.79 ± 0.63 | 2.51 ± 0.69 | 1.17 ± 0.37 | 0.963 ± 0.016 | 0.909 ± 0.13 | 1.35 ± 0.047 | 2.08 ± 0.14 | 1.8 ± 0.47 | 1.57 ± 0.18
CCCCNC(=O)NS(=O)(=O)c1ccc(C)cc1 [Tolbutamide] | 1.19 ± 0.13 | 1.37 ± 0.015 | 1.47 ± 0.061 | 0.946 ± 0.12 | 1.04 ± 0.22 | 1.18 ± 0.17 | 1.06 ± 0.14 | – | 0.864 ± 0.37 | 1.22 ± 0.11 | 0.688 ± 0.27 | 1.1 ± 0.13 | 1.37 ± 0.36 | 0.678 ± 0.31 | 1.16 ± 0.28 | 1.08 ± 0.18 | 1.14 ± 0.2 | 0.717 ± 0.035
CC(C)C[C@@H](NC(=O)OCC1c2ccccc2-c2ccccc21)C(=O)O [N-Fmoc-D-leucine] | 1.19 ± 0.1 | 1.19 ± 0.088 | 1.25 ± 0.07 | 1.48 ± 0.24 | 1.16 ± 0.15 | 1.29 ± 0.19 | 0.658 ± 0.72 | 0.756 ± 0.3 | 0.588 ± 0.12 | 0.713 ± 0.031 | 0.49 ± 0.029 | 0.961 ± 0.18 | 1.6 ± 0.48 | 0.931 ± 0.14 | 1.02 ± 0.082 | 1.17 ± 0.087 | 0.809 ± 0.083 | –
CCOC(=O)C1=C(C)NC(C)=C(C(=O)OCC)C1c1ccccc1/C=C/C(=O)OC(C)(C)C [Lacidipine] | 1.59 ± 0.07 | 1.31 ± 0.13 | 1.2 ± 0.078 | 1.02 ± 0.082 | 1 ± 0.021 | 1.07 ± 0.067 | 0.934 ± 0.066 | 0.174 ± 0.08 | 0.474 ± 0.11 | 0.858 ± 0.17 | 0.635 ± 0.23 | 1 ± 0.076 | 1.42 ± 0.17 | 1.16 ± 0.34 | 0.988 ± 0.14 | 1.312 ± 0.013 | 0.885 ± 0.15 | –
CC(C)(C)NC(=O)[C@@H]1C[C@@H]2CCCC[C@@H]2CN1C[C@@H](O)[C@H](Cc1ccccc1)NC(=O)[C@H](CC(N)=O)NC(=O)c1ccc2ccccc2n1 [Saquinavir mesylate] | 1.39 ± 0.053 | 1.23 ± 0.079 | 1.32 ± 0.13 | 1.12 ± 0.12 | 1.34 ± 0.091 | 1.15 ± 0.19 | 0.818 ± 0.22 | 0.456 ± 0.37 | 0.549 ± 0.12 | 0.921 ± 0.11 | 1.01 ± 0.35 | 1.05 ± 0.29 | 1.32 ± 0.12 | 1.19 ± 0.083 | 0.881 ± 0.099 | 0.967 ± 0.051 | 1.12 ± 0.19 | –
CCN(Cc1ccncc1)C(=O)C(CO)c1ccccc1 (stereo not given) [Tropicamide] | 1.23 ± 0.23 | 0.977 ± 0.17 | 1.36 ± 0.25 | 1.16 ± 0.088 | 1.244 ± 0.01 | 1.41 ± 0.09 | 1.05 ± 1.2 | 0.55 ± 0.025 | 0.782 ± 0.07 | 0.493 ± 0.019 | 0.407 ± 0.056 | 0.744 ± 0.34 | 1.58 ± 0.85 | 0.977 ± 0.077 | 1.03 ± 0.12 | 1.06 ± 0.045 | 0.843 ± 0.18 | –
